PubChem BioAssay AID200 (DTP/NCI, 2004)
The list does not hold the whole screen: it is rich in T/C values a quarter to a half above the control, in often repeated tests (any T/C) and in doses without a T/C. Further doses and runs are listed elsewhere. T/C: endpoint of the treated group in % of that of the vehicle group. Some entries give survivors of the animals treated and no T/C: the source holds a T/C of zero for them, seemingly a mark for toxic or unscored doses. Some doses without a T/C left all or most animals alive at the check, yet need not have been tolerated: the source hardly ever lists a survival T/C far under the control, and the zero likely stands for such cases as well. Survivors were counted at the toxicity check, usually on the fifth day, unless a day is given; later deaths do not show. Schedules are NCI's codes, read here as Q, the interval in days (D) or hours (H), X, the number of doses. Some entries were tested several times; the results are listed from low to high. For survival time, the PubChem record calls one and a half times the control and up active, and a quarter to a half above the control has no call in these data; cut-offs in other NCI protocols can differ. Some T/C values are followed by the survivors on the day toxicity was checked, most often the fifth; where none is given, no animal had died by that day. Marks such as (2×) say how often a value occurs here.

Tested on: B6C3F1 mice, B16 melanoma ip, median survival T/C
Assay: NCI In Vivo Anticancer Drug Screen. Data for tumor model B16 Melanoma (intraperitoneal) in B6C3F1 mice
Conditions: T/C endpoint: median survival time, higher T/C = longer survival
Outline: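 Transplantable tumor in mice; treated vs vehicle control groups; survival or tumor size measured; value = T/C ratio.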

[1] = dose: 50.0 mg/kg/injection, schedule: Q01DX009 (ip), vehicle: saline with Tween-80
[2] = dose: 100.0 mg/kg/injection, schedule: Q01DX009 (ip), vehicle: saline with Tween-80
[3] = dose: 32.0 micrograms/kg/injection, schedule: Q01DX009 (ip), vehicle: distilled water + alcohol
[4] = dose: 50.0 mg/kg/injection, schedule: Q01DX009 (ip), vehicle: saline
[5] = dose: 100.0 mg/kg/injection, schedule: Q01DX009 (ip), vehicle: saline
[6] = dose: 200.0 mg/kg/injection, schedule: Q01DX009 (ip), vehicle: saline
[7] = dose: 5.0 mg/kg/injection, schedule: Q01DX009 (ip), vehicle: water
[8] = dose: 10.0 mg/kg/injection, schedule: Q01DX009 (ip), vehicle: water
[9] = dose: 800.0 mg/kg/injection, schedule: Q01DX009 (ip), vehicle: Klucel (hydroxypropylcellulose) (HPC)
[10] = dose: 400.0 mg/kg/injection, schedule: Q01DX009 (ip), vehicle: Klucel (hydroxypropylcellulose) (HPC)

O=c1nc(Oc2ccccc2)nc2ncccn12
T/C (dose: 6.25 mg/kg/injection, schedule: Q01DX009 (ip), vehicle: saline with Tween-80, evaluated on day 45): 109 % of control
T/C (dose: 6.25 mg/kg/injection, schedule: Q01DX009 (ip), vehicle: saline with Tween-80, evaluated on day 60): 90, 101, 108 % of control
T/C (dose: 12.5 mg/kg/injection, schedule: Q01DX009 (ip), vehicle: saline with Tween-80, evaluated on day 45): 116 % of control
T/C (dose: 12.5 mg/kg/injection, schedule: Q01DX009 (ip), vehicle: saline with Tween-80, evaluated on day 60): 101, 106, 113 % of control
T/C (dose: 25.0 mg/kg/injection, schedule: Q01DX009 (ip), vehicle: saline with Tween-80, evaluated on day 45): 114 % of control [9 of 10 alive]
T/C (dose: 25.0 mg/kg/injection, schedule: Q01DX009 (ip), vehicle: saline with Tween-80, evaluated on day 60): 106 [9 of 10 alive], 112 [8 of 10 alive], 124 % of control
T/C (dose: 50.0 mg/kg/injection, schedule: Q01DX009 (ip), vehicle: saline with Tween-80, evaluated on day 45): 146 % of control [8 of 10 alive]
T/C (dose: 50.0 mg/kg/injection, schedule: Q01DX009 (ip), vehicle: saline with Tween-80, evaluated on day 60): 125 and 140 % of control
survivor count [1]: 0 of 10
survivor count [2]: 0 of 10, 1 of 10, 3 of 10, 4 of 10

OCc1c(CO)c(-c2ccc(Cl)cc2)n2c1CCC2
survivor count (dose: 400.0 mg/kg/injection, schedule: Q01DX009 (ip), vehicle: distilled water + Tween-80): 10 of 10

COc1cc2cc(c1Cl)N(C)C(=O)CC(OC(=O)C(C)NC(=O)C(C)C)C1(C)OC1C(C)C1CC(O)(NC(=O)O1)C(OC)/C=C/C=C(C)C2OC (configuration not stated)
T/C (dose: 16.0 micrograms/kg/injection, schedule: Q01DX009 (ip), vehicle: distilled water + alcohol): 128 % of control
T/C [3]: 128 % of control

O=[n+]1c2c(n([O-])c3ccccc31)-c1cccc3cccc-2c13
survivor count (dose: 25.0 mg/kg/injection, schedule: Q01DX009 (ip), vehicle: saline with Tween-80): 10 of 10
survivor count [1]: 10 of 10
survivor count [2]: 10 of 10

O=C(Nc1cccnc1)c1ccc([N+](=O)[O-])s1
T/C (dose: 3.13 mg/kg/injection, schedule: Q01DX009 (ip), vehicle: saline): 128 % of control
survivor count [4]: 10 of 10
survivor count [5]: 10 of 10
survivor count [6]: 10 of 10
survivor count (dose: 400.0 mg/kg/injection, schedule: Q01DX009 (ip), vehicle: saline): 10 of 10

ClC1=C(Cl)C(Cl)=C(Cl)C1=Cc1ccccc1
survivor count [1]: 10 of 10
survivor count [2]: 2 of 10

CCOC(=O)C(CC(C)C)NC(=O)C(N)Cc1ccc(N(CCCl)CCCl)cc1 (configuration not stated)
T/C (dose: 2.5 mg/kg/injection, schedule: Q01DX009 (ip), vehicle: water): 125 % of control
T/C [7]: 111 [9 of 10 alive], 133, 157 % of control
survivor count [7]: 9 of 10
T/C [8]: 168, 174, 197 % of control
survivor count [8]: 6 of 10
survivor count (dose: 20.0 mg/kg/injection, schedule: Q01DX009 (ip), vehicle: water): 0 of 10, 8 of 10, 9 of 10, 10 of 10
survivor count (dose: 40.0 mg/kg/injection, schedule: Q01DX009 (ip), vehicle: water): 0 of 10 and 9 of 10
survivor count (dose: 80.0 mg/kg/injection, schedule: Q01DX009 (ip), vehicle: water): 0 of 10

COCC1OC2OC3C(COC)OC(OC4C(COC)OC(OC5C(COC)OC(OC6C(COC)OC(OC7C(COC)OC(OC8C(COC)OC(OC1C(O)C2O)C(O)C8O)C(O)C7O)C(O)C6O)C(O)C5O)C(O)C4O)C(O)C3O (configuration not stated) (tested in a mixture with another compound)
survivor count (dose: 50.0 mg/kg/injection, schedule: Q01DX009 (oral), vehicle: Klucel (hydroxypropylcellulose) (HPC)): 9 of 10
survivor count (dose: 200.0 mg/kg/injection, schedule: Q01DX009 (oral), vehicle: Klucel (hydroxypropylcellulose) (HPC)): 9 of 10 and 10 of 10
survivor count (dose: 200.0 mg/kg/injection, schedule: Q04HX027 (ip), vehicle: Klucel (hydroxypropylcellulose) (HPC)): 10 of 10
survivor count (dose: 400.0 mg/kg/injection, schedule: Q04HX027 (ip), vehicle: Klucel (hydroxypropylcellulose) (HPC)): 8 of 10
survivor count [9]: 5 of 10
survivor count (dose: 800.0 mg/kg/injection, schedule: Q01DX009 (oral), vehicle: Klucel (hydroxypropylcellulose) (HPC)): 7 of 10
survivor count (dose: 800.0 mg/kg/injection, schedule: Q04HX027 (ip), vehicle: Klucel (hydroxypropylcellulose) (HPC)): 1 of 10
survivor count (dose: 1600.0 mg/kg/injection, schedule: Q01DX009 (oral), vehicle: Klucel (hydroxypropylcellulose) (HPC)): 1 of 10
survivor count (dose: 3200.0 mg/kg/injection, schedule: Q01DX009 (oral), vehicle: Klucel (hydroxypropylcellulose) (HPC)): 9 of 10

C/C=C1\C(=O)O[C@@]23C=C[C@H]4C(C(=O)OC)=CO[C@@H](O[C@H]12)[C@H]43
survivor count (dose: 30.0 mg/kg/injection, schedule: Q01DX009 (ip), vehicle: Klucel (hydroxypropylcellulose) (HPC)): 9 of 10

COc1cc(C(=O)c2cocc2C(=O)c2ccc3c(c2)OCO3)cc(OC)c1OC
T/C (dose: 100.0 mg/kg/injection, schedule: Q01DX009 (ip), vehicle: Klucel (hydroxypropylcellulose) (HPC)): 129 % of control
T/C (dose: 200.0 mg/kg/injection, schedule: Q01DX009 (ip), vehicle: Klucel (hydroxypropylcellulose) (HPC)): 139 and 144 % of control
T/C [10]: 130 [8 of 9 alive] and 148 % of control
survivor count [9]: 8 of 10

CC(=O)N(C)C
survivor count (dose: 3600.0 mg/kg/injection, schedule: Q01DX009 (ip), vehicle: saline): 6 of 10

Oc1ccc(CCl)c2cccnc12
survivor count (dose: 12.5 mg/kg/injection, schedule: Q01DX009 (ip), vehicle: saline): 10 of 10
T/C (dose: 25.0 mg/kg/injection, schedule: Q01DX009 (ip), vehicle: saline): 92, 98, 102, 105 % of control
T/C [4]: 87, 90, 109, 119 % of control
T/C [5]: 91 (2×) and 128 % of control [9 of 10 alive]
survivor count [5]: 10 of 10
survivor count [6]: 6 of 10, 8 of 10, 10 of 10

CC12C(=O)C=CCC1=CCC1C2CCC2(O)C(=O)OC3(C)C4CC5(C)C(COC16OC23C5C6=O)C(=O)O4 (configuration not stated)
survivor count [10]: 2 of 10

CCC1OC(OC)C=CC1=O (configuration not stated)
survivor count [5]: 0 of 10
survivor count [6]: 0 of 10

COc1cccc2c1C(=O)c1c(O)c3c(c(O)c1C2=O)C[C@@](O)(C(C)=O)C[C@@H]3OC1CC(N(Cc2ccccc2)Cc2ccccc2)C(O)C(C)O1 (some centres not stated)
T/C (dose: 6.0 mg/kg/injection, schedule: Q01DX009 (ip), vehicle: saline with Tween-80): 127 % of control
T/C (dose: 6.0 mg/kg/injection, schedule: Q01DX009 (ip), vehicle: water): 139 % of control
survivor count (dose: 24.0 mg/kg/injection, schedule: Q01DX009 (ip), vehicle: saline with Tween-80): 10 of 10
survivor count (dose: 24.0 mg/kg/injection, schedule: Q01DX009 (ip), vehicle: water): 10 of 10
survivor count (dose: 48.0 mg/kg/injection, schedule: Q01DX009 (ip), vehicle: saline with Tween-80): 9 of 10
survivor count (dose: 48.0 mg/kg/injection, schedule: Q01DX009 (ip), vehicle: water): 9 of 10

COc1cc2cc(c1Cl)N(C)C(=O)/C=C/C1(C)OC1C(C)C1CC(O)(NC(=O)O1)C(OC)/C=C/C=C(\C)C2OC (configuration not stated)
T/C [3]: 135 % of control
